# Assay results: US20030166287A1
# Amino acid sequences for entries named in this document (tags omitted).
# UniProt P30825: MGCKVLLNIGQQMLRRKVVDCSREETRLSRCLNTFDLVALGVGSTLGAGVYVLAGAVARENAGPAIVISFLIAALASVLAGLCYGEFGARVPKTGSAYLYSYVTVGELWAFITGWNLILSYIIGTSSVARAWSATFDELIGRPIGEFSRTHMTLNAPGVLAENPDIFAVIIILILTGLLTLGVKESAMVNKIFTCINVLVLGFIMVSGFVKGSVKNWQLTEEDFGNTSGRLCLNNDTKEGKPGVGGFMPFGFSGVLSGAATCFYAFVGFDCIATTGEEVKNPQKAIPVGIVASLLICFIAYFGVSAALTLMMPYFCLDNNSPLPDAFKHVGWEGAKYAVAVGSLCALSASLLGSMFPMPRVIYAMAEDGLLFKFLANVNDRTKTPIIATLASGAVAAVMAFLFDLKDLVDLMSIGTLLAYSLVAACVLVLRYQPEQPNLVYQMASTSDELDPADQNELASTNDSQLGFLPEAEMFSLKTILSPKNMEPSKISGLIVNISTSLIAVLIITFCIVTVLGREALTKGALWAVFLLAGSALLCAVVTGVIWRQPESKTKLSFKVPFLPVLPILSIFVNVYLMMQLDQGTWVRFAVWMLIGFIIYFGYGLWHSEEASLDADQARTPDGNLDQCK
# These are yes or no findings as the source states them, for the method shown. Some entries that bind do so weakly or less than the wild type.
# Columns and labels:
# [1] = target: human cationic amino acid transporter-1 (hCAT1) on 911-hCAT1-k08 cells (human) (UniProt P30825); test: cell binding of phage, titering on E. coli
# [2] = target: human cationic amino acid transporter-1 (hCAT1) on 911-hCAT1-k08 cells (human) (UniProt P30825); test: flow cytometry, 10^11 phage on 911-pcDNA3 and 911-hCAT1(k08) cells
substance,measurement,setting,value
cloned … (SEQ ID NO: 1) displaying m13 phage (from UniProt P69168 19-424) (peptide),binding,[1],binds
same,binding,[2],binds
